Measurements: publication PMC3778009

Experiments:
[1] = biological target: T1, endogenous MEIOB (testis extract) (UniProt Q9D513); assay: pull-down; details: 10 ug/ml BSA, 1 mM EDTA, 1 h at 4 C, protein in an extract, label: biotin
T1 sequence (looked up, limits assumed): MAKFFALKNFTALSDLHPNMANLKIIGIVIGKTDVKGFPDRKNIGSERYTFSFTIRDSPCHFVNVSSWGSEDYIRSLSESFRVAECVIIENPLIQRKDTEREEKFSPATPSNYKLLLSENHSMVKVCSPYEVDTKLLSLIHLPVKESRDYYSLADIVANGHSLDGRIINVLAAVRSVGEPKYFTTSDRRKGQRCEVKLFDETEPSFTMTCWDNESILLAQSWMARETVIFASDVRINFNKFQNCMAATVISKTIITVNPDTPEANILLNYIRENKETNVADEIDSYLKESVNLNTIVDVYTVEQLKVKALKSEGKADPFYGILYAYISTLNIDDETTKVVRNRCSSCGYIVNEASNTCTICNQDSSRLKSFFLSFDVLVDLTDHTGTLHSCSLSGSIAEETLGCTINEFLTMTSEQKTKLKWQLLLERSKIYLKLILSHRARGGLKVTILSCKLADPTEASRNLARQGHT

[2] = tested on: T2, tagged human MEIOB (HEK-293 lysate) (human); assay: pull-down; details: 10 ug/ml BSA, 1 mM EDTA, 1 h at 4 C, protein in a lysate after overexpression, label: biotin
T2 sequence (looked up, limits assumed): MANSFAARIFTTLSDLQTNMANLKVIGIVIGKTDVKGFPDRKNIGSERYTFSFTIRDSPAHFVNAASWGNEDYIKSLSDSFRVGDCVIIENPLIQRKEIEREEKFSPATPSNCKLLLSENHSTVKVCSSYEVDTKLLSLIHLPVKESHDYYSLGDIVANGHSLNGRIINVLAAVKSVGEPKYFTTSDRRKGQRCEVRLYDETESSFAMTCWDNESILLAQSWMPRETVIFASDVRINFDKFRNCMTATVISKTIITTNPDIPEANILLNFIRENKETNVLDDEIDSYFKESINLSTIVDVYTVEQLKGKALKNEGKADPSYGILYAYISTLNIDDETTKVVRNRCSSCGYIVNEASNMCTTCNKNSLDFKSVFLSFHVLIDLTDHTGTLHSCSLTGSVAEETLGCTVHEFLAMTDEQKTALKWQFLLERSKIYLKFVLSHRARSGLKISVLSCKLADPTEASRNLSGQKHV

[3] = 3' BiotinTEG on strand 1, BSA 5 mg/ml (cell-free) or 10 ug/ml (extracts)
[4] = 3' BiotinTEG, BSA 5 mg/ml (cell-free) or 10 ug/ml (extracts), single-stranded DNA

GATCTGCACGACGCACACCGGACGTATCTGCTATCGCTCATGTCAACCGCTCAAGCTGC (double strand) [ds60-mer]
binding result [1, 3]: binds more weakly | binding result [2, 3]: binds more weakly

GATCTGCACGACGCACACCGGACGTATCTGCTATCGCTCATGTCAACCGCTCAAGCTGC [ss60-mer]
binding signal (reference for ss30-mer retention) [1, 4]: 1 | binding result [2, 4]: binds

GATCTCAGCGATTCACACGCGTCCTAACTCG [ss30-mer 2]
binding signal (fraction of ss60-mer retention) [1, 4]: 0.5 | binding result [2, 4]: binds more weakly

Construct, isoform or probe ends are uncertain for at least one entry. Where cells or extracts were used, other partners may take part. Weaker means in comparison with the reference protein, sequence or condition of that experiment. At least one verdict was read from the data and is not stated in words by the source. Protein sequences can lack the tags named with them. For part of these data: The direction of at least one scale is not stated here.
